# Results from PubChem BioAssay AID504444 (National Center for Advancing Translational Sciences (NCATS), 2011).
# The campaign covered roughly 360,000 compounds. About 7,500 (2.1%) were called active. This list was built around the results that the source calls inconclusive (neither active nor inactive); the mix of calls is not that of the screen. Calls come from the whole dose curve; as a rule, active = well fitted inhibition curve with a large enough effect; inconclusive = small, poorly fitted or top-dose-only effect, or effect the other way; inactive = flat fitted curve, though single readings scatter. A potency beside an inconclusive call is a rough fit, not a confirmed value.
# Assay: Nrf2 qHTS screen for inhibitors; note: nearly all actives have a fitted effect of over 60% in size
# Conditions: A549 ARE-Fluc reporter, luciferase luminescence, 18-24 h; activity change, negative = inhibition: at 46 µM (top of the series)
# How it was run: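 Two sequential reads on A549 ARE_Fluc cells exposed to compound for 18-24 h: a CellTiter-Fluor fluorescence read for viability, then a luciferase luminescence read for Nrf2/ARE activity.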
# % is set by controls: 0 for no effect and ±100 for the full control effect; potency is the fitted concentration of half-maximal effect.
Structure (SMILES),Potency,"activity change, negative = inhibition"
CC(C)(C)S(=O)(=O)N1C[C@@H]2CC/C=C\C/C(c3ccccc3)=C\2[C@H]1CCO,"inconclusive: 6.51 µM [activator, partial curve]",
O=[N+]([O-])c1cc(Cl)cc(/C=N/Nc2nc3ccccc3s2)c1O,"inconclusive: 16.4 µM [falling, partial curve, poor fit]",
Cc1cccc(NC(=O)c2cccc(NC(=O)Cc3cccs3)c2)c1,"inconclusive: 6.51 µM [activator, single point]",
COc1cccc(NC(=O)CN(C)C(=O)c2c(C)nn(-c3ccccc3)c2Cl)c1,"inconclusive: 32.6 µM [falling, single point]",
CC1(C)CC(=O)c2cc(C(=O)Nc3ccc(Cl)cc3)c(=O)[nH]c2C1,"inconclusive: 7.31 µM [activator, partial curve]",
Cc1ccc(CS(=O)Cc2ccc(C(=O)NC3CCCC(C)C3C)o2)cc1 (stereo not drawn),,inactive: -9.4%
Cc1ccc(NC(=O)C2=CC(c3cccs3)=NS(=O)(=O)N2C)cc1,"inconclusive: 32.6 µM [falling, single point]",
O=C(CSc1nnc(-c2cccnc2)o1)Nc1ccccn1,,inactive: 19.8%
Cc1cc(C)cc(NC(=O)c2ccc(NC(=O)C3C4CC5OC(=O)C3C5C4)cc2)c1 (stereo not drawn),"inconclusive: 18.4 µM [falling, partial curve]",
Cc1ccc(Nc2nc(-c3ccc(S(=O)(=O)N4CCOCC4)cc3)cs2)cc1Cl,"inconclusive: 0.92 µM [falling, partial curve, poor fit]",
COc1ccc2c(c1)c1nnc(SCCN3CCOCC3)nc1n2C,,inactive: 6.4%
COc1ccc2cc(-c3ccccc3F)ncc2c1,"inconclusive: 4.11 µM [activator, full curve]",
CN1C(=S)SC2CS(=O)(=O)CC21C (stereo not drawn),,inactive: 12.3%
CCCc1cc2c(cc1NC(=O)c1ccc(C)cc1)OCO2,"inconclusive: 1.84 µM [activator, full curve]",
CC(=O)N1c2ccccc2C(=O)C1N1CCN(c2cccc(C)c2C)CC1 (stereo not drawn),"inconclusive: 23.1 µM [activator, partial curve]",
Cc1ccc(NC(=O)CSc2nc3c(c(=O)[nH]2)CN(Cc2ccccc2)CC3)cc1Cl,,inactive: -0.774%
O=C(/C=C/c1ccc(Cl)cc1)N1CCN(Cc2ccccc2)CC1,,inactive: 4.02%
Nc1nonc1-c1nc2ccccc2n1Cc1ccc(Br)cc1,,inactive: -19.3%
Cc1nc(S(=O)(=O)N2CCOCC2)c(C#N)c(C)c1Cl,,inactive: -25.4%
Cc1scc(C(=O)N/N=C/c2ccco2)c1C,"inconclusive: 1.03 µM [activator, full curve]",
COc1ccc(-c2nnc(SCC#N)o2)cc1,"inconclusive: 18.4 µM [falling, single point]",
O=C(Nc1cccc(-c2nnc(-c3ccco3)o2)c1)C(c1ccccc1)c1ccccc1,active: 20.6 µM,

Structure (SMILES),Potency,"activity change, negative = inhibition"
COC(=O)c1cc2occc2n1Cc1ccc(F)cc1Cl,"inconclusive: 16.4 µM [activator, partial curve]",
O=C(Nc1ccc(N2CCN(C(=O)c3ccco3)CC2)cc1)c1ccc([N+](=O)[O-])cc1Cl,"inconclusive: 16.4 µM [falling, single point]",
CCCCC(=O)NC(=S)NNC(=O)CC,,inactive: -6.75%
O=C(CSc1nnc(-c2ccc(O)cc2)o1)Nc1ccc2c(c1)OCCO2,"inconclusive: 5.17 µM [falling, partial curve, poor fit]",
Cc1c(C(=O)N2CCc3ccccc3C2)oc2ccc(S(=O)(=O)N3CCCCCC3)cc12,active: 14.6 µM,
CCCCOc1ccc(-c2ncc(N)cn2)cc1,"inconclusive: 3.66 µM [activator, full curve]",
Cc1ccc(-c2nn(CCC(=O)Nc3ccc(Cl)c(Cl)c3)c(=O)c3ccccc23)cc1,,inactive: -4.96%
NC1=NC(c2ccccc2C(F)(F)F)N(c2ccc(F)c(Cl)c2)C(N)=N1 (stereo not drawn),,inactive: 5.77%
O=S(=O)(Nc1cccc(Cl)c1)c1ccc(-n2cccn2)cc1,"inconclusive: 29.1 µM [falling, partial curve, poor fit]",
Cc1[nH]c2ccc(C(=O)OC(C)C(=O)NC3(C#N)CCCCC3)cc2c1C (stereo not drawn),"inconclusive: 29.1 µM [falling, single point]",
COc1ccc(-c2nc(S(=O)(=O)c3ccc(Cl)cc3)c(N3CCCCCC3)o2)cc1,"inconclusive: 29.1 µM [falling, single point]",
Cc1ccc(C(=O)NCCSc2c(C)[nH]c3ccccc23)cc1C,,inactive: -4.57% [at 9.27 µM]
CCn1nc(C)c(NC(=O)/C=C/c2ccc(OC)c(COc3ccc(Cl)cc3Br)c2)c1C,"inconclusive: 1.3 µM [falling, full curve, poor fit]",
CC(C)c1ccc2c(c1)CC[C@H]1[C@](C)(CN)CCC[C@]21C,"inconclusive: 8.2 µM [activator, partial curve]",
O=C(CCC(=O)c1ccc(F)cc1)Nc1cc(Cl)cc(Cl)c1,"inconclusive: 4.11 µM [activator, single point]",
COc1ccccc1N1CCN(C(=O)c2ccc(Cn3c(=O)[nH]c4ccsc4c3=O)cc2)CC1,"inconclusive: 29.1 µM [falling, partial curve, poor fit]",
O=[N+]([O-])c1ccc(/C=N/n2c(C3CCCCC3)n[nH]c2=S)cc1,"inconclusive: 0.82 µM [falling, partial curve, poor fit]",
Cc1cc(/C=C2\SC(=S)NC2=O)c(C)n1-c1ccc(O)cc1,"inconclusive: 3.26 µM [activator, partial curve, poor fit]",
CN(C)C(=O)CCc1ccc2c3c([nH]c2c1)[C@]1(CCc2ccccc2)[C@@H](C(=O)N2CCCCC2)C[C@H](CC(=O)NCc2cccc(C(F)(F)F)c2)C(=O)N1CC3,"inconclusive: 18.4 µM [falling, single point]",
Cc1ccccc1CSc1nnc([C@@H]2CCCN2)o1,"inconclusive: 6.51 µM [falling, full curve, poor fit]",
O=c1c2ccccc2nnn1CSc1nnc2ccccn12,"inconclusive: 1.46 µM [activator, full curve]",

# Quoted at random: 3 entries already listed, in no set order.
Structure (SMILES),Potency,"activity change, negative = inhibition"
CC1(C)CC(=O)c2cc(C(=O)Nc3ccc(Cl)cc3)c(=O)[nH]c2C1,"inconclusive: 7.31 µM [activator, partial curve]",
COc1ccc(-c2nc(S(=O)(=O)c3ccc(Cl)cc3)c(N3CCCCCC3)o2)cc1,"inconclusive: 29.1 µM [falling, single point]",
Cc1ccc(NC(=O)C2=CC(c3cccs3)=NS(=O)(=O)N2C)cc1,"inconclusive: 32.6 µM [falling, single point]",
